In US20100056552A1, “COMBINATION FOR USE IN THE TREATMENT OF INFLAMMATORY DISORDERS” (priority 2007, published 2010):

Test: MM6 cell growth/viability (WST-1 reagent)
Assay type: cell-based
Details: human, MonoMac-6 (MM6) macrophage cell line, drug alone 10 μM, n=3, read-out: viability of MM6 cells compared to untreated MM6 cells
Procedure: Cells from the human macrophage cell-line MonoMac-6 (MM6) (Ziegler-Heitbrock et al, Int. J. Cancer, 41, 456 (1988)) were cultured (37° C./5% CO2) in RPMI-1640 medium supplemented with 1 mM sodium pyruvate, × nonessential amino acids, 10 μg/mL insulin, 1 mM oxalacetic acid, 100 units/mL penicillin, 100 μg/mL streptomycin and 5% (v/v) fetal bovine serum. At the start of the experiment, MM6 cells were seeded in 96-well plates at a density of 1×10^5 cells/mL (100 μL per well in cell the viability experiments, and 150 μL per well in the TNF release experiments—see below).
The MM6 cells were treated (incubation conditions as above) with indicated final concentrations of the test drugs for 48 hours prior to quantification of cell viability/growth or stimulation with phorbol-12-myristate-13-acetate (PMA; Sigma Aldrich, Stockholm, Sweden) followed by measurement of PMA-induced TNF-release (see below for details).
MM6 cell growth/viability was measured using the Cell Proliferation Reagent WST-1 (Roche Diagnostics Scandinavia AB, Bromma, Sweden). The WST-1 reagent is designed to be used for spectrophotometric quantification of e.g. cell growth and viability and. was used according to the manufacturers' instructions. […]

Structure (SMILES): CC(C)c1c(C(=O)Nc2ccccc2)c(-c2ccccc2)c(-c2ccc(F)cc2)n1CC[C@@H](O)C[C@@H](O)CC(=O)O [atorvastatin]
- viability at 48 h, 10 μM: 94%
